Patent publication US9284543B2, “Neutral active soluble truncated PH20 polypeptides and uses thereof” (Halozyme, Inc., priority 2008, dated 2016)

Columns and labels:
CHO-S cells = assay: Secretion of N-glycan site specific deglycosylation mutants into the media (Western blot); assay type: cell-based, Chinese Hamster; conditions: for Secretion: expressed in CHO-S cells, secretion into the media
CHO cells = assay: Immunofluorescent analysis of CHO cells with an anti-PH20 antibody; assay type: cell-based, Chinese Hamster; conditions: 48 hours post-transfection

B1: N254A: PH20sHis N-glycosylation site mutant N254A, SEQ ID NO:205 (protein)
chain: MGVLKFKHIFFRSFVKSSGVSQIVFTFLLIPCCLTLNFRAPPVIPNVPFLWAWNAPSEFCLGKFDEPLDMSLFSFIGSPRINATGQGVTIFYVDRLGYYPYIDSITGVTVNGGIPQKISLQDHLDKAKKDITFYMPVDNLGMAVIDWEEWRPTWARNWKPKDVYKNRSIELVQQQNVQLSLTEATEKAKQEFEKAGKDFLVETIKLGKLLRPNHLWGYYLFPDCYNHHYKKPGYNGSCFNVEIKRNDDLSWLWAESTALYPSIYLNTQQSPVAATLYVRNRVREAIRVSKIPDAKSPLPVFAYTRIVFTDQVLKFLSQDELVYTFGETVALGASGIVIWGTLSIMRSMKSCLLLDNYMETILNPYIINVTLAAKMCSQVLCQEQGVCIRKNWNSSDYLHLNPDNFAIQLEKGGKFTVRGKPTLEDLEQFSEKFYCSCYSTLSCKEKADVKDTDAVDVCIADGVCIDAFLKPPMETEEPQIFYNASPSTLSHHHHHH
modifications: His tag; PH20sHis N254A
In the case of B1, the Secretion (CHO-S cells) is reported as “YES” and the Secretion (CHO-S cells; listed as N254) is reported as “no effect on secretion”.

B2: N393A: PH20sHis N-glycosylation site mutant N393A, SEQ ID NO:189 (protein)
chain: MGVLKFKHIFFRSFVKSSGVSQIVFTFLLIPCCLTLNFRAPPVIPNVPFLWAWNAPSEFCLGKFDEPLDMSLFSFIGSPRINATGQGVTIFYVDRLGYYPYIDSITGVTVNGGIPQKISLQDHLDKAKKDITFYMPVDNLGMAVIDWEEWRPTWARNWKPKDVYKNRSIELVQQQNVQLSLTEATEKAKQEFEKAGKDFLVETIKLGKLLRPNHLWGYYLFPDCYNHHYKKPGYNGSCFNVEIKRNDDLSWLWNESTALYPSIYLNTQQSPVAATLYVRNRVREAIRVSKIPDAKSPLPVFAYTRIVFTDQVLKFLSQDELVYTFGETVALGASGIVIWGTLSIMRSMKSCLLLDNYMETILNPYIINVTLAAKMCSQVLCQEQGVCIRKNWASSDYLHLNPDNFAIQLEKGGKFTVRGKPTLEDLEQFSEKFYCSCYSTLSCKEKADVKDTDAVDVCIADGVCIDAFLKPPMETEEPQIFYNASPSTLSHHHHHH
modifications: His tag; PH20sHis-N393A (mut2)
B2 was tested, and the “Localisation of PH20 in transfected CHO cells” value (CHO cells) was “accumulate inside the cells”, the Protein Expression (CHO-S cells; Western blot analysis) was “reduced protein expression” and the Secretion (CHO-S cells) was “observed in the media and YES”.

B3: N368A: PH20sHis N-glycosylation site mutant N368A, SEQ ID NO:188 (protein)
chain: MGVLKFKHIFFRSFVKSSGVSQIVFTFLLIPCCLTLNFRAPPVIPNVPFLWAWNAPSEFCLGKFDEPLDMSLFSFIGSPRINATGQGVTIFYVDRLGYYPYIDSITGVTVNGGIPQKISLQDHLDKAKKDITFYMPVDNLGMAVIDWEEWRPTWARNWKPKDVYKNRSIELVQQQNVQLSLTEATEKAKQEFEKAGKDFLVETIKLGKLLRPNHLWGYYLFPDCYNHHYKKPGYNGSCFNVEIKRNDDLSWLWNESTALYPSIYLNTQQSPVAATLYVRNRVREAIRVSKIPDAKSPLPVFAYTRIVFTDQVLKFLSQDELVYTFGETVALGASGIVIWGTLSIMRSMKSCLLLDNYMETILNPYIIAVTLAAKMCSQVLCQEQGVCIRKNWNSSDYLHLNPDNFAIQLEKGGKFTVRGKPTLEDLEQFSEKFYCSCYSTLSCKEKADVKDTDAVDVCIADGVCIDAFLKPPMETEEPQIFYNASPSTLSHHHHHH
modifications: His tag; PH20sHis-N368A (mut1)
For B3, the “Localisation of PH20 in transfected CHO cells” value (CHO cells) was “accumulate inside the cells”.

B4: N82A/N166A: PH20sHis double mutant, SEQ ID NO:206 (protein)
chain: MGVLKFKHIFFRSFVKSSGVSQIVFTFLLIPCCLTLNFRAPPVIPNVPFLWAWNAPSEFCLGKFDEPLDMSLFSFIGSPRIAATGQGVTIFYVDRLGYYPYIDSITGVTVNGGIPQKISLQDHLDKAKKDITFYMPVDNLGMAVIDWEEWRPTWARNWKPKDVYKARSIELVQQQNVQLSLTEATEKAKQEFEKAGKDFLVETIKLGKLLRPNHLWGYYLFPDCYNHHYKKPGYNGSCFNVEIKRNDDLSWLWNESTALYPSIYLNTQQSPVAATLYVRNRVREAIRVSKIPDAKSPLPVFAYTRIVFTDQVLKFLSQDELVYTFGETVALGASGIVIWGTLSIMRSMKSCLLLDNYMETILNPYIINVTLAAKMCSQVLCQEQGVCIRKNWNSSDYLHLNPDNFAIQLEKGGKFTVRGKPTLEDLEQFSEKFYCSCYSTLSCKEKADVKDTDAVDVCIADGVCIDAFLKPPMETEEPQIFYNASPSTLSHHHHHH
modifications: His tag; PH20sHis N82A/N166A
B4 was tested, and the Secretion (CHO-S cells) was “YES”.

B5: N82A/N254A: PH20sHis double mutant, SEQ ID NO:207 (protein)
chain: MGVLKFKHIFFRSFVKSSGVSQIVFTFLLIPCCLTLNFRAPPVIPNVPFLWAWNAPSEFCLGKFDEPLDMSLFSFIGSPRIAATGQGVTIFYVDRLGYYPYIDSITGVTVNGGIPQKISLQDHLDKAKKDITFYMPVDNLGMAVIDWEEWRPTWARNWKPKDVYKNRSIELVQQQNVQLSLTEATEKAKQEFEKAGKDFLVETIKLGKLLRPNHLWGYYLFPDCYNHHYKKPGYNGSCFNVEIKRNDDLSWLWAESTALYPSIYLNTQQSPVAATLYVRNRVREAIRVSKIPDAKSPLPVFAYTRIVFTDQVLKFLSQDELVYTFGETVALGASGIVIWGTLSIMRSMKSCLLLDNYMETILNPYIINVTLAAKMCSQVLCQEQGVCIRKNWNSSDYLHLNPDNFAIQLEKGGKFTVRGKPTLEDLEQFSEKFYCSCYSTLSCKEKADVKDTDAVDVCIADGVCIDAFLKPPMETEEPQIFYNASPSTLSHHHHHH
modifications: His tag; PH20sHis N82A/N254A
With B5 the Secretion (CHO-S cells) was “YES”.

B6: N166A/N254A: PH20sHis double mutant, SEQ ID NO:208 (protein)
chain: MGVLKFKHIFFRSFVKSSGVSQIVFTFLLIPCCLTLNFRAPPVIPNVPFLWAWNAPSEFCLGKFDEPLDMSLFSFIGSPRINATGQGVTIFYVDRLGYYPYIDSITGVTVNGGIPQKISLQDHLDKAKKDITFYMPVDNLGMAVIDWEEWRPTWARNWKPKDVYKARSIELVQQQNVQLSLTEATEKAKQEFEKAGKDFLVETIKLGKLLRPNHLWGYYLFPDCYNHHYKKPGYNGSCFNVEIKRNDDLSWLWAESTALYPSIYLNTQQSPVAATLYVRNRVREAIRVSKIPDAKSPLPVFAYTRIVFTDQVLKFLSQDELVYTFGETVALGASGIVIWGTLSIMRSMKSCLLLDNYMETILNPYIINVTLAAKMCSQVLCQEQGVCIRKNWNSSDYLHLNPDNFAIQLEKGGKFTVRGKPTLEDLEQFSEKFYCSCYSTLSCKEKADVKDTDAVDVCIADGVCIDAFLKPPMETEEPQIFYNASPSTLSHHHHHH
modifications: His tag; PH20sHis N166A/N254A
For B6, the Secretion (CHO-S cells) was “YES”.

B7: N82A/N166A/N254A: PH20sHis triple mutant, SEQ ID NO:209 (protein)
chain: MGVLKFKHIFFRSFVKSSGVSQIVFTFLLIPCCLTLNFRAPPVIPNVPFLWAWNAPSEFCLGKFDEPLDMSLFSFIGSPRIAATGQGVTIFYVDRLGYYPYIDSITGVTVNGGIPQKISLQDHLDKAKKDITFYMPVDNLGMAVIDWEEWRPTWARNWKPKDVYKARSIELVQQQNVQLSLTEATEKAKQEFEKAGKDFLVETIKLGKLLRPNHLWGYYLFPDCYNHHYKKPGYNGSCFNVEIKRNDDLSWLWAESTALYPSIYLNTQQSPVAATLYVRNRVREAIRVSKIPDAKSPLPVFAYTRIVFTDQVLKFLSQDELVYTFGETVALGASGIVIWGTLSIMRSMKSCLLLDNYMETILNPYIINVTLAAKMCSQVLCQEQGVCIRKNWNSSDYLHLNPDNFAIQLEKGGKFTVRGKPTLEDLEQFSEKFYCSCYSTLSCKEKADVKDTDAVDVCIADGVCIDAFLKPPMETEEPQIFYNASPSTLSHHHHHH
modifications: His tag; PH20sHis N82A/N166A/N254A
With B7 the Secretion (CHO-S cells) was “YES”.

B8: HZ24-PH20sHis: his-tagged PH20 (SEQ ID NO:187), human PH20 clone with HexaHis tag after amino acid S490 (protein)
chain: MGVLKFKHIFFRSFVKSSGVSQIVFTFLLIPCCLTLNFRAPPVIPNVPFLWAWNAPSEFCLGKFDEPLDMSLFSFIGSPRINATGQGVTIFYVDRLGYYPYIDSITGVTVNGGIPQKISLQDHLDKAKKDITFYMPVDNLGMAVIDWEEWRPTWARNWKPKDVYKNRSIELVQQQNVQLSLTEATEKAKQEFEKAGKDFLVETIKLGKLLRPNHLWGYYLFPDCYNHHYKKPGYNGSCFNVEIKRNDDLSWLWNESTALYPSIYLNTQQSPVAATLYVRNRVREAIRVSKIPDAKSPLPVFAYTRIVFTDQVLKFLSQDELVYTFGETVALGASGIVIWGTLSIMRSMKSCLLLDNYMETILNPYIINVTLAAKMCSQVLCQEQGVCIRKNWNSSDYLHLNPDNFAIQLEKGGKFTVRGKPTLEDLEQFSEKFYCSCYSTLSCKEKADVKDTDAVDVCIADGVCIDAFLKPPMETEEPQIFYNASPSTLSHHHHHH
modifications: His6 tag; PH20sHis
B8 was tested, and the Secretion (CHO-S cells) was “YES”.
